# Laboratory results published in publication PMC7819943, “Rice protein-binding microarrays: a tool to detect cis-acting elements near promoter regions in rice”.
# Some of the results follow.
# Target: T1, OsSMF1 (Oryza sativa, UniProt Q6ZLB0 1-436)
# T1 sequence: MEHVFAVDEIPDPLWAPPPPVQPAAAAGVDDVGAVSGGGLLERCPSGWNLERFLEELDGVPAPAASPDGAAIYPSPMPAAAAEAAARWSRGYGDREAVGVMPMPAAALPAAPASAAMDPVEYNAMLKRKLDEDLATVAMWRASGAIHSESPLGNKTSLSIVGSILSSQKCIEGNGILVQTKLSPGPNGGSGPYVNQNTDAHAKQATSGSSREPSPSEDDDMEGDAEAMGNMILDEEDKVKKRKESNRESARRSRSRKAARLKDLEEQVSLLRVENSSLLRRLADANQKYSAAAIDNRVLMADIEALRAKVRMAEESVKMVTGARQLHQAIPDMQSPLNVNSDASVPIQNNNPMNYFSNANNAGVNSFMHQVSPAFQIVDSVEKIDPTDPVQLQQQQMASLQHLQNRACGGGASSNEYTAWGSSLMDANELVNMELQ
# Test: protein-binding microarray (RPBM); PBS, 2% BSA, 51.3 ng/ul salmon testes DNA, 50 uM zinc acetate, 200 nM TF, 25 C, 1 h; high values mean tight binding
# Details: protein: recombinant; tags: N-terminal polyhistidine and DsRed monomer fusion (pET32a); chain copies: 2; label: CyDye5-dUTP incorporated in the synthesized complementary strand; 3' TTTTT single-stranded linker to array surface; dsDNA, one strand shown
# Procedure, shortened: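 In PBS with 2% BSA, salmon testes DNA and 50 µM zinc acetate, 200 nM protein was incubated on a custom Agilent array at 25 °C for 1 h and then washed off. The array had been made double-stranded by primer extension with Cy5-dUTP and blocked with 2% BSA. The proteins were transcription factors fused N-terminally to polyhistidine and DsRed, expressed in E. coli BL21-CodonPlus and purified on Ni–NTA. The binding signal is per-feature fluorescence intensity (arbitrary units) from an Axon 4000B scanner.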
row,Sequence,binding signal
1,TGTATACCACATCACTGACATTACGATGTATATATATACCCGGAGTCACCTAGTGCAG,4270 fluorescence intensity (a.u.)
2,CTCCGTTGTGCTCTGTCTCTCTACCGCCACCATCCACTGCCGGAGTCACCTAGTGCAG,39200 fluorescence intensity (a.u.)
3,TCGCGCCGCCGCCGCCGCCGCGTAGTCATCGAGTCGAGCACGGAGTCACCTAGTGCAG,4980 fluorescence intensity (a.u.)
4,CATCCACCGCCACCGCCACCGCCACCGCCACCTCACCACCCGGAGTCACCTAGTGCAG,6020 fluorescence intensity (a.u.)
5,CGGCGACAGCGTATCCAACGTAGGCTCGGGCCCACGTCGCCGGAGTCACCTAGTGCAG,4100 fluorescence intensity (a.u.)
6,CGCTCCGCAGCCCACGCGAGCCACGCTGACGCGTAGGCCCCGGAGTCACCTAGTGCAG,5570 fluorescence intensity (a.u.)
7,GACATGAATTTTCCATCATATATTCATGCGGTTCATTATGCGGAGTCACCTAGTGCAG,4430 fluorescence intensity (a.u.)
8,TACCATAATCTACCATTACAGACACTGACGTGTGAGACAACGGAGTCACCTAGTGCAG,8050 fluorescence intensity (a.u.)
9,AGTTAAAGTTCAGAGTTGAAGAATAGAACTGGGTCTAATACGGAGTCACCTAGTGCAG,26900 fluorescence intensity (a.u.)
10,AGAATCGCTTATATTATGGGACGGACGTAACATATAGAAGCGGAGTCACCTAGTGCAG,41100 fluorescence intensity (a.u.)
11,ATGTGATGATTGTTAGTGGATGATGATGTGGCATCTTGTTCGGAGTCACCTAGTGCAG,27000 fluorescence intensity (a.u.)
12,CCTTGCAAACATGTCCTTCGTTTCCGTATCATGCGATTGGCGGAGTCACCTAGTGCAG,3530 fluorescence intensity (a.u.)
13,AGTTGATTATGAGTCTTGTGACTTGTGGGGTTGTTTTGGTCGGAGTCACCTAGTGCAG,4040 fluorescence intensity (a.u.)
14,GTACGGTCACGACTCATGACACAGTACTCCTAGTCAAACCCGGAGTCACCTAGTGCAG,4140 fluorescence intensity (a.u.)
15,GAACCTCTCGTAGCCTCACATCTCGTCATTCCTCCCTCCTCGGAGTCACCTAGTGCAG,5220 fluorescence intensity (a.u.)
16,AATACTTTATGCAGGTGTTCAAATGTTCGATGTGACAGGGCGGAGTCACCTAGTGCAG,3150 fluorescence intensity (a.u.)
17,ACAGGAAAATCTATTTTCGTGTGCGCGTCATTTAACAGGTCGGAGTCACCTAGTGCAG,3230 fluorescence intensity (a.u.)
18,AAAACCGTTTCCAAAACCATTTAGGGAGTCAATTTGCATTCGGAGTCACCTAGTGCAG,3210 fluorescence intensity (a.u.)
19,TAAATTGTATATACGTATACAACATATACATGTATGTAGTCGGAGTCACCTAGTGCAG,32900 fluorescence intensity (a.u.)
20,CTATACTATTAATATATGGTCTCATCTGTCATACATATATCGGAGTCACCTAGTGCAG,3830 fluorescence intensity (a.u.)
21,AGCCCACAAGCATGCATGCCACACTAGCTTAGCTGTCTCACGGAGTCACCTAGTGCAG,3710 fluorescence intensity (a.u.)

# Part of the list above, tab-delimited.
row	Sequence	binding signal
2	CTCCGTTGTGCTCTGTCTCTCTACCGCCACCATCCACTGCCGGAGTCACCTAGTGCAG	39200 fluorescence intensity (a.u.)
7	GACATGAATTTTCCATCATATATTCATGCGGTTCATTATGCGGAGTCACCTAGTGCAG	4430 fluorescence intensity (a.u.)
11	ATGTGATGATTGTTAGTGGATGATGATGTGGCATCTTGTTCGGAGTCACCTAGTGCAG	27000 fluorescence intensity (a.u.)
12	CCTTGCAAACATGTCCTTCGTTTCCGTATCATGCGATTGGCGGAGTCACCTAGTGCAG	3530 fluorescence intensity (a.u.)
13	AGTTGATTATGAGTCTTGTGACTTGTGGGGTTGTTTTGGTCGGAGTCACCTAGTGCAG	4040 fluorescence intensity (a.u.)
14	GTACGGTCACGACTCATGACACAGTACTCCTAGTCAAACCCGGAGTCACCTAGTGCAG	4140 fluorescence intensity (a.u.)
15	GAACCTCTCGTAGCCTCACATCTCGTCATTCCTCCCTCCTCGGAGTCACCTAGTGCAG	5220 fluorescence intensity (a.u.)
18	AAAACCGTTTCCAAAACCATTTAGGGAGTCAATTTGCATTCGGAGTCACCTAGTGCAG	3210 fluorescence intensity (a.u.)
19	TAAATTGTATATACGTATACAACATATACATGTATGTAGTCGGAGTCACCTAGTGCAG	32900 fluorescence intensity (a.u.)
21	AGCCCACAAGCATGCATGCCACACTAGCTTAGCTGTCTCACGGAGTCACCTAGTGCAG	3710 fluorescence intensity (a.u.)

# Following part:

row,Sequence,binding signal
1,GGCGGACGCGGACGCGGGAGTGCGTGACGACGACGAGTCGCGGAGTCACCTAGTGCAG,4070 fluorescence intensity (a.u.)
2,ATTGGATACATGTCATTGTAAGTTTGTAACTCTACCAGTTCGGAGTCACCTAGTGCAG,4300 fluorescence intensity (a.u.)
3,GACCACCCCACTCCGCGCCACTGTCCACGTCTGCATAGTCCGGAGTCACCTAGTGCAG,17600 fluorescence intensity (a.u.)
4,CGTATAGTTACAGTCGATCGAGGTGGTCAGTGAGACACAGCGGAGTCACCTAGTGCAG,30200 fluorescence intensity (a.u.)
5,CCACCACCACCACCACCACCGCGCCCGACAACCACTTCTCCGGAGTCACCTAGTGCAG,3340 fluorescence intensity (a.u.)
6,CACACACACACACACACACACACACACACACACACACACTCGGAGTCACCTAGTGCAG,6190 fluorescence intensity (a.u.)
7,TTTTGAACGTCATGCACACAACTAGAGTATGTCCCATCGGCGGAGTCACCTAGTGCAG,3860 fluorescence intensity (a.u.)
8,TCATGGAGGTCCAGCTCATTCTCCATGTGTGGTCCTAGAGCGGAGTCACCTAGTGCAG,5740 fluorescence intensity (a.u.)
9,TGGCGCGGTCAGCGGCGCACGGGATGACGCGGAGCACGAGCGGAGTCACCTAGTGCAG,3410 fluorescence intensity (a.u.)
10,AGCATTAGCAGCTAAGCCTAACAGTGGATTATGTCACGTTCGGAGTCACCTAGTGCAG,3350 fluorescence intensity (a.u.)
11,ATCCGTGCTACCTCATCATATATTCACCAACATTAGGATACGGAGTCACCTAGTGCAG,4250 fluorescence intensity (a.u.)
12,TGAGCACCTCATCCACGCGTCATGCATCTGTGTCGGGGCTCGGAGTCACCTAGTGCAG,45200 fluorescence intensity (a.u.)
13,AACAAATACCCTCGTGGTTGGGCTGACTGTGCATCCGTTGCGGAGTCACCTAGTGCAG,8090 fluorescence intensity (a.u.)
14,CAATCATATAGTAGATGAACACGAATATAGGGAGGGGCATCGGAGTCACCTAGTGCAG,21500 fluorescence intensity (a.u.)
15,TGGACAAAGTTATTAGTTGTACTAGGAGGGGTCACATGTTCGGAGTCACCTAGTGCAG,3180 fluorescence intensity (a.u.)
16,CGCGTTGCCCACGTCGTACCTCGTCCCGATCTTCACCATGCGGAGTCACCTAGTGCAG,3450 fluorescence intensity (a.u.)
17,GCATGGCAGTATAATTGTCTTGTCACCCAATTAATATTGCCGGAGTCACCTAGTGCAG,4580 fluorescence intensity (a.u.)
18,CGCTCGCGTCGCGTCCGCCTGACGAGGAAGCTACAACCATCGGAGTCACCTAGTGCAG,3690 fluorescence intensity (a.u.)
19,AACAGATCTGTCCTATTTGCCTTACCACCCCATTTGTGCGCGGAGTCACCTAGTGCAG,3660 fluorescence intensity (a.u.)
20,AATCCGCCGCCTCCCCAAAATCACGCGAGGCGCCGGCGAACGGAGTCACCTAGTGCAG,38300 fluorescence intensity (a.u.)
21,CGGGCACTGGCTCAGCGACACTGACACGCCCGGGCCCACCCGGAGTCACCTAGTGCAG,3920 fluorescence intensity (a.u.)
